PubChem BioAssay AID743121 – NCATS | 2013
Shown is one part, drawn at random, of about 26,000 reagents tested. Of all reagents, 167 (0.63%) are marked active. 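Calls are per gene from RSA p-values that are not deposited; an individual active-marked siRNA can sensitise only weakly.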 Reagents against one gene are numbered here. Not all columns of the deposit are shown.

- Aim: 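Knock-downs that sensitise breast cancer cells to camptothecin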 (primary screen)
- Cells: MDA-MB-231 cells, a human breast cancer line
- Reagents: single siRNA against human genes, 20 nM siRNA (0.8 pmol per well)
- Time to read-out: 120 h (drug added 48 h after transfection, read 72 h later)
- Conditions: camptothecin 20 nM (about EC30) for 72 h; vehicle 0.1% DMSO in parallel plates
- Read-out: 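CellTiter-Glo ATP signal, scaled to control siRNA as percent viability; sensitisation given as log2 of untreated divided by camptothecin-treated viability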
- Direction: log2 vehicle/camptothecin viability: higher = stronger sensitisation to camptothecin
- Active means: 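Active genes have an RSA gene-level p-value below 0.001, computed from the ratios of their separate siRNAs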

For FUCA1 (alpha-L-fucosidase 1) #1, what was measured?
log2 vehicle/camptothecin viability: -0.141; Call: inactive

Which result is listed for FUCA1 (alpha-L-fucosidase 1) #2?
log2 vehicle/camptothecin viability: -0.291; Call: inactive

With FUCA1 (alpha-L-fucosidase 1) #3, what does the deposit list?
log2 vehicle/camptothecin viability: 0.0422; Call: inactive

How did the screen score FUCA1 (alpha-L-fucosidase 1) #4?
log2 vehicle/camptothecin viability: -0.12; Call: inactive

What is on record for CIT (citron rho-interacting serine/threonine kinase) #1?
log2 vehicle/camptothecin viability: -0.264; Call: inactive

Which result is listed for CIT (citron rho-interacting serine/threonine kinase) #2?
log2 vehicle/camptothecin viability: -0.309; Call: inactive

For CIT (citron rho-interacting serine/threonine kinase) #3, what does the deposit list?
log2 vehicle/camptothecin viability: -0.0269; Call: inactive

How did the screen score CIT (citron rho-interacting serine/threonine kinase) #4?
log2 vehicle/camptothecin viability: 0.00509; Call: inactive

With SH2B2 (SH2B adaptor protein 2) #1, how do the results read?
log2 vehicle/camptothecin viability: -0.105; Call: inactive

For SH2B2 (SH2B adaptor protein 2) #2, what was measured?
log2 vehicle/camptothecin viability: 0.393; Call: inactive

How did the screen score SH2B2 (SH2B adaptor protein 2) #3?
log2 vehicle/camptothecin viability: -0.381; Call: inactive

What is on record for SH2B2 (SH2B adaptor protein 2) #4?
log2 vehicle/camptothecin viability: -0.37; Call: inactive

For GPA33 (glycoprotein A33) #1, what was measured?
log2 vehicle/camptothecin viability: -0.538; Call: inactive

Which result is listed for GPA33 (glycoprotein A33) #2?
log2 vehicle/camptothecin viability: -0.283; Call: inactive

Which result is listed for GPA33 (glycoprotein A33) #3?
log2 vehicle/camptothecin viability: -0.0349; Call: inactive

What did the screen give for GPA33 (glycoprotein A33) #4?
log2 vehicle/camptothecin viability: -0.349; Call: inactive

What is on record for NECTIN4 (nectin cell adhesion molecule 4) #1?
log2 vehicle/camptothecin viability: -0.121; Call: inactive

With NECTIN4 (nectin cell adhesion molecule 4) #2, what does the deposit list?
log2 vehicle/camptothecin viability: -0.125; Call: inactive

How did the screen score NECTIN4 (nectin cell adhesion molecule 4) #3?
log2 vehicle/camptothecin viability: -0.213; Call: inactive

What is on record for NECTIN4 (nectin cell adhesion molecule 4) #4?
log2 vehicle/camptothecin viability: -0.298; Call: inactive

With INPP5K (inositol polyphosphate-5-phosphatase K) #1, how do the results read?
log2 vehicle/camptothecin viability: -0.356; Call: inactive

With INPP5K (inositol polyphosphate-5-phosphatase K) #2, what does the deposit list?
log2 vehicle/camptothecin viability: -0.259; Call: inactive

What did the screen give for INPP5K (inositol polyphosphate-5-phosphatase K) #3?
log2 vehicle/camptothecin viability: 0.853; Call: inactive

With INPP5K (inositol polyphosphate-5-phosphatase K) #4, what does the deposit list?
log2 vehicle/camptothecin viability: -0.204; Call: inactive

What did the screen give for IL1A (interleukin 1 alpha) #1?
log2 vehicle/camptothecin viability: -0.389; Call: inactive

For IL1A (interleukin 1 alpha) #2, what was measured?
log2 vehicle/camptothecin viability: -0.502; Call: inactive

With IL1A (interleukin 1 alpha) #3, how do the results read?
log2 vehicle/camptothecin viability: -0.0882; Call: inactive

For MCHR1 (melanin concentrating hormone receptor 1) #1, what was measured?
log2 vehicle/camptothecin viability: -0.0238; Call: inactive

Which result is listed for MCHR1 (melanin concentrating hormone receptor 1) #2?
log2 vehicle/camptothecin viability: -0.0093; Call: inactive

For MCHR1 (melanin concentrating hormone receptor 1) #3, what does the deposit list?
log2 vehicle/camptothecin viability: -0.248; Call: inactive

For MCHR1 (melanin concentrating hormone receptor 1) #4, what does the deposit list?
log2 vehicle/camptothecin viability: -0.16; Call: inactive

What is on record for ADGRG2 (adhesion G protein-coupled receptor G2) #1?
log2 vehicle/camptothecin viability: -0.118; Call: inactive

Which result is listed for ADGRG2 (adhesion G protein-coupled receptor G2) #2?
log2 vehicle/camptothecin viability: -0.0647; Call: inactive

What is on record for ADGRG2 (adhesion G protein-coupled receptor G2) #3?
log2 vehicle/camptothecin viability: 0.521; Call: inactive

With ADGRG2 (adhesion G protein-coupled receptor G2) #4, what does the deposit list?
log2 vehicle/camptothecin viability: -0.0344; Call: inactive

Which result is listed for TRIP12 (thyroid hormone receptor interactor 12) #1?
log2 vehicle/camptothecin viability: 0.254; Call: inactive

With TRIP12 (thyroid hormone receptor interactor 12) #2, what does the deposit list?
log2 vehicle/camptothecin viability: -0.273; Call: inactive

For TRIP12 (thyroid hormone receptor interactor 12) #3, what does the deposit list?
log2 vehicle/camptothecin viability: 0.526; Call: inactive

How did the screen score TRIP12 (thyroid hormone receptor interactor 12) #4?
log2 vehicle/camptothecin viability: -0.66; Call: inactive

With PCDHB16 (protocadherin beta 16) #1, what does the deposit list?
log2 vehicle/camptothecin viability: 0.444; Call: inactive

With PCDHB16 (protocadherin beta 16) #2, what does the deposit list?
log2 vehicle/camptothecin viability: -0.0616; Call: inactive

For PCDHB16 (protocadherin beta 16) #3, how do the results read?
log2 vehicle/camptothecin viability: -0.0771; Call: inactive

What is on record for PCDHB16 (protocadherin beta 16) #4?
log2 vehicle/camptothecin viability: -0.583; Call: inactive

How did the screen score CUL3 (cullin 3) #1?
log2 vehicle/camptothecin viability: -0.1; Call: inactive

Which result is listed for CUL3 (cullin 3) #2?
log2 vehicle/camptothecin viability: 0.199; Call: inactive

For CUL3 (cullin 3) #3, what was measured?
log2 vehicle/camptothecin viability: -0.416; Call: inactive

With CUL3 (cullin 3) #4, how do the results read?
log2 vehicle/camptothecin viability: -0.268; Call: inactive

Sorted by “log2 vehicle/camptothecin viability” (lowest first): some entries from above.
CIT (citron rho-interacting serine/threonine kinase) #2 → log2 vehicle/camptothecin viability = -0.309; Call = inactive
CIT (citron rho-interacting serine/threonine kinase) #1 → log2 vehicle/camptothecin viability = -0.264; Call = inactive
FUCA1 (alpha-L-fucosidase 1) #4 → log2 vehicle/camptothecin viability = -0.12; Call = inactive
